In the supplement of paper PMC12067093, “Discovery and optimisation of a covalent ligand for TRIM25 and its application to targeted protein ubiquitination” (Chemical Science, 2025):
This is one part of the list.

Chains of the proteins cited; added tags and fusions are not shown. Lines headed by an entry give the natural chain unless they say otherwise; changes in a name come on top.
UniProt Q5TAX3: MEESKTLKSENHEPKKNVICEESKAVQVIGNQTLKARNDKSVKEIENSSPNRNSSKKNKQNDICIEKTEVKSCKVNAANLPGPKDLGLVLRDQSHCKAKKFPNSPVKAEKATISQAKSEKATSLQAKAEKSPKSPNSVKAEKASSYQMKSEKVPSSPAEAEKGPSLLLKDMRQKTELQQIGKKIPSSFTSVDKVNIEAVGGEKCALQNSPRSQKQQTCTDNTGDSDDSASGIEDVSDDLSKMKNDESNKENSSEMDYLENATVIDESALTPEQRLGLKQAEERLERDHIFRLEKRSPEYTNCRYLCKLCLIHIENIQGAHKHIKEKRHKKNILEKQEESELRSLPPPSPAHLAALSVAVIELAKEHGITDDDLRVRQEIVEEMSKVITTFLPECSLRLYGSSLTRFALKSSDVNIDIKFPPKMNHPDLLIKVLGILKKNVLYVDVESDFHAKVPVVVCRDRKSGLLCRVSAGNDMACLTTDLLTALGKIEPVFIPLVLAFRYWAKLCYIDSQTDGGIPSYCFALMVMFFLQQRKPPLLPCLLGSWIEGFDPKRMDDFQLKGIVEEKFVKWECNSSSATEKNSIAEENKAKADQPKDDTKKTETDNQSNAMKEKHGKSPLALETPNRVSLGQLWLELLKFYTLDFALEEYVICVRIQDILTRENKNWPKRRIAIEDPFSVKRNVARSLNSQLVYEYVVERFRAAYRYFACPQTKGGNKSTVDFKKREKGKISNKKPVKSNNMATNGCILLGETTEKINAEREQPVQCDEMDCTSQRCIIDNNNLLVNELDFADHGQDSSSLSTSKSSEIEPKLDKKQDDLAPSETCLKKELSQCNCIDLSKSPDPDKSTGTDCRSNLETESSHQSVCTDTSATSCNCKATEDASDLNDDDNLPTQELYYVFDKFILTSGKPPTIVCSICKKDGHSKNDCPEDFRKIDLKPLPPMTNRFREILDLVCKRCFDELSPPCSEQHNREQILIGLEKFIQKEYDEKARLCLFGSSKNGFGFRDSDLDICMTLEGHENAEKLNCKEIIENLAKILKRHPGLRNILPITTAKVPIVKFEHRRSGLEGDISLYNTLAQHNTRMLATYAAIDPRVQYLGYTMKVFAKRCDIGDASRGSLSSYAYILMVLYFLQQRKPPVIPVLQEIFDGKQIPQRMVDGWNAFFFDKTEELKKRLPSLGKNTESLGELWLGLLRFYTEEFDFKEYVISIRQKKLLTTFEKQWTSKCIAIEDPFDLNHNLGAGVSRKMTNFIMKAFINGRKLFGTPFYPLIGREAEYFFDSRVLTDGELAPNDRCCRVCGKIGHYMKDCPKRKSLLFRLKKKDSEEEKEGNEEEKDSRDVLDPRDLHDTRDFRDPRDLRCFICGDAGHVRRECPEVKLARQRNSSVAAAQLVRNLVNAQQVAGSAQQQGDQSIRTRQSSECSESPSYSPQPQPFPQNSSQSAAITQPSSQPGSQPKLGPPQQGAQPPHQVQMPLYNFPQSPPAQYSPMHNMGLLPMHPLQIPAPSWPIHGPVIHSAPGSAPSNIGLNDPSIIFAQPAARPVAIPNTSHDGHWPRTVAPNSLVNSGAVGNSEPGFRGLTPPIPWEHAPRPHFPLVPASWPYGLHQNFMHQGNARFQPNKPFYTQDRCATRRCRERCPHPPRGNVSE
UniProt Q14166: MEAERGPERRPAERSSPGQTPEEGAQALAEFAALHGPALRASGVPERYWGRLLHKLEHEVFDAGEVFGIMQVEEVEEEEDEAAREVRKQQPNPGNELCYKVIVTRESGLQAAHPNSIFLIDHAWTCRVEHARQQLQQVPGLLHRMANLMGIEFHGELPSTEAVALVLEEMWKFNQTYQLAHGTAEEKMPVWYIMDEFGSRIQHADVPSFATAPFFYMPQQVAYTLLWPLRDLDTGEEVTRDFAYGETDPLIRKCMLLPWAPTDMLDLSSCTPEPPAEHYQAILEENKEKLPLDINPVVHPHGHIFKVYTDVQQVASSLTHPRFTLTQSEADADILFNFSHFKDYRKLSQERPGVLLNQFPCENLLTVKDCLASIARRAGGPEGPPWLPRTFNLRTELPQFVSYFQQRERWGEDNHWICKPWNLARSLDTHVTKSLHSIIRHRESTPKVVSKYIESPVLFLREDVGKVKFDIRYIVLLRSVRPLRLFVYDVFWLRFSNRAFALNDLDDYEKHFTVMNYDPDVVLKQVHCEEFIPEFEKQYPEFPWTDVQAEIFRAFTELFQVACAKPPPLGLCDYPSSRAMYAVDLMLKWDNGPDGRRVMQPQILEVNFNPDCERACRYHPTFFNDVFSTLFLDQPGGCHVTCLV
UniProt O94759, whole entry, looked up: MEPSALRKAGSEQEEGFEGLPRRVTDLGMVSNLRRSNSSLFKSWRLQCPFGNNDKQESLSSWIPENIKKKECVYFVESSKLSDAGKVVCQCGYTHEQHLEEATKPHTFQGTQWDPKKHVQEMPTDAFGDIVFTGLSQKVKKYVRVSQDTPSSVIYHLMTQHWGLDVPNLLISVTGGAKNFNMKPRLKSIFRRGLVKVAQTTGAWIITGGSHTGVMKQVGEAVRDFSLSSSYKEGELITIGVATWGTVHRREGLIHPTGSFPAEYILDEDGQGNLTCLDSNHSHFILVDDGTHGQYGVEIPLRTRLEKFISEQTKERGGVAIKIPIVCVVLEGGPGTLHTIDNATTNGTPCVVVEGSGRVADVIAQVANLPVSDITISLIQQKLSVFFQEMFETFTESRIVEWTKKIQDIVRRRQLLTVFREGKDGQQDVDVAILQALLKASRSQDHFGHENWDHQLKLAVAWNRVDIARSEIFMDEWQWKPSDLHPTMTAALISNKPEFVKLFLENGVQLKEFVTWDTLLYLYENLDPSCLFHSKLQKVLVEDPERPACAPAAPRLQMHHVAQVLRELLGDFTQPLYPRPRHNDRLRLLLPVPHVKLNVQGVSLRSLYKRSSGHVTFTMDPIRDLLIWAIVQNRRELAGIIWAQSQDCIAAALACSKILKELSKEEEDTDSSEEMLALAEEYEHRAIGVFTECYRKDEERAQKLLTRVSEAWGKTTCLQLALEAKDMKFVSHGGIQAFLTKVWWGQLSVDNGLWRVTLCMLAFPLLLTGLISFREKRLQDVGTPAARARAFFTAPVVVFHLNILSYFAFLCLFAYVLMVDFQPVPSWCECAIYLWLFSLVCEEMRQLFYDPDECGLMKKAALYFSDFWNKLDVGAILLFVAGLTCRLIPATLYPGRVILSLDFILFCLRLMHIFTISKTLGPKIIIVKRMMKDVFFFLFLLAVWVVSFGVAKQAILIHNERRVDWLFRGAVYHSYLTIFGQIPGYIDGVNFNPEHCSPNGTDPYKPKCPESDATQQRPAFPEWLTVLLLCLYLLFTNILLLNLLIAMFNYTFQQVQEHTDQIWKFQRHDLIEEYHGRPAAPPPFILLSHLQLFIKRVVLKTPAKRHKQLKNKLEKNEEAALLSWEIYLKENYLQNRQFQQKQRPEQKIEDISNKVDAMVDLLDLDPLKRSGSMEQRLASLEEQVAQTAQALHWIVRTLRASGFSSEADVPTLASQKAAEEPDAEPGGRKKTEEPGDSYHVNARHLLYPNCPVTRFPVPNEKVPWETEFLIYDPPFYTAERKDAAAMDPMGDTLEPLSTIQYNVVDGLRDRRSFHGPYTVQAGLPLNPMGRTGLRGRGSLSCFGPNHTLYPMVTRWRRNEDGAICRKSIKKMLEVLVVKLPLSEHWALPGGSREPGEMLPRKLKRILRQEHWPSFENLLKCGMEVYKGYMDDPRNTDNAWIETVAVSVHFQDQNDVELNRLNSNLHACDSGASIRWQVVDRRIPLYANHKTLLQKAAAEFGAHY
UniProt O95801: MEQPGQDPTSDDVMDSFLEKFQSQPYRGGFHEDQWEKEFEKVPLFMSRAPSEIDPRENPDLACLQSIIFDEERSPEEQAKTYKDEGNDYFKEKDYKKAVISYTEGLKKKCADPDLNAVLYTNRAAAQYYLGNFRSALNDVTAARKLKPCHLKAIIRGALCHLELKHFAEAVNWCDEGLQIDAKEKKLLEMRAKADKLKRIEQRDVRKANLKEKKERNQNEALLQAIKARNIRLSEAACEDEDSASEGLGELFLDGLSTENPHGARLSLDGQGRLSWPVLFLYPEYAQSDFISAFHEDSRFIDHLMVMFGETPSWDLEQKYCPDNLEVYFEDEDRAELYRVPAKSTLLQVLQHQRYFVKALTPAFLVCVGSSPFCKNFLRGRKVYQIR
UniProt P33981: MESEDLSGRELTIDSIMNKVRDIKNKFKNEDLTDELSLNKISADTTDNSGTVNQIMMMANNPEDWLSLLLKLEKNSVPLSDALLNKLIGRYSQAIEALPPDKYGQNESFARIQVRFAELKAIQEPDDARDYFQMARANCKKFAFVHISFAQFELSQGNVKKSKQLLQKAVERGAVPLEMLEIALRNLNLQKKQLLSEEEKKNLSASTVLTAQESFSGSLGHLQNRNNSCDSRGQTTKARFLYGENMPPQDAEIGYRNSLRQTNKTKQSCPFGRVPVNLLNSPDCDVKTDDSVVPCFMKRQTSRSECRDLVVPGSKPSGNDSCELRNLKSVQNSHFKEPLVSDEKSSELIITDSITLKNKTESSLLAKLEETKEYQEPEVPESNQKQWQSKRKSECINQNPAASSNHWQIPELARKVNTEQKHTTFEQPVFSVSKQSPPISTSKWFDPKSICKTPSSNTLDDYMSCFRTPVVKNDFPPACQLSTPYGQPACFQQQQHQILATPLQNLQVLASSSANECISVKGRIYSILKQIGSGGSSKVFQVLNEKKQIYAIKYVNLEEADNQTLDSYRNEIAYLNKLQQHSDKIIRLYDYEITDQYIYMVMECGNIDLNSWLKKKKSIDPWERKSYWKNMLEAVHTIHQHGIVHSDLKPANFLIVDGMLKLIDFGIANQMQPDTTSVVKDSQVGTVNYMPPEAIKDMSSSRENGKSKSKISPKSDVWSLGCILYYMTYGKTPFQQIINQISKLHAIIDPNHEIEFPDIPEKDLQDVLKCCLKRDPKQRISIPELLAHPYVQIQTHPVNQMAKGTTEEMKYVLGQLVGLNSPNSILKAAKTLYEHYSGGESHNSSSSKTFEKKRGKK
UniProt Q6PGP7, whole entry, looked up: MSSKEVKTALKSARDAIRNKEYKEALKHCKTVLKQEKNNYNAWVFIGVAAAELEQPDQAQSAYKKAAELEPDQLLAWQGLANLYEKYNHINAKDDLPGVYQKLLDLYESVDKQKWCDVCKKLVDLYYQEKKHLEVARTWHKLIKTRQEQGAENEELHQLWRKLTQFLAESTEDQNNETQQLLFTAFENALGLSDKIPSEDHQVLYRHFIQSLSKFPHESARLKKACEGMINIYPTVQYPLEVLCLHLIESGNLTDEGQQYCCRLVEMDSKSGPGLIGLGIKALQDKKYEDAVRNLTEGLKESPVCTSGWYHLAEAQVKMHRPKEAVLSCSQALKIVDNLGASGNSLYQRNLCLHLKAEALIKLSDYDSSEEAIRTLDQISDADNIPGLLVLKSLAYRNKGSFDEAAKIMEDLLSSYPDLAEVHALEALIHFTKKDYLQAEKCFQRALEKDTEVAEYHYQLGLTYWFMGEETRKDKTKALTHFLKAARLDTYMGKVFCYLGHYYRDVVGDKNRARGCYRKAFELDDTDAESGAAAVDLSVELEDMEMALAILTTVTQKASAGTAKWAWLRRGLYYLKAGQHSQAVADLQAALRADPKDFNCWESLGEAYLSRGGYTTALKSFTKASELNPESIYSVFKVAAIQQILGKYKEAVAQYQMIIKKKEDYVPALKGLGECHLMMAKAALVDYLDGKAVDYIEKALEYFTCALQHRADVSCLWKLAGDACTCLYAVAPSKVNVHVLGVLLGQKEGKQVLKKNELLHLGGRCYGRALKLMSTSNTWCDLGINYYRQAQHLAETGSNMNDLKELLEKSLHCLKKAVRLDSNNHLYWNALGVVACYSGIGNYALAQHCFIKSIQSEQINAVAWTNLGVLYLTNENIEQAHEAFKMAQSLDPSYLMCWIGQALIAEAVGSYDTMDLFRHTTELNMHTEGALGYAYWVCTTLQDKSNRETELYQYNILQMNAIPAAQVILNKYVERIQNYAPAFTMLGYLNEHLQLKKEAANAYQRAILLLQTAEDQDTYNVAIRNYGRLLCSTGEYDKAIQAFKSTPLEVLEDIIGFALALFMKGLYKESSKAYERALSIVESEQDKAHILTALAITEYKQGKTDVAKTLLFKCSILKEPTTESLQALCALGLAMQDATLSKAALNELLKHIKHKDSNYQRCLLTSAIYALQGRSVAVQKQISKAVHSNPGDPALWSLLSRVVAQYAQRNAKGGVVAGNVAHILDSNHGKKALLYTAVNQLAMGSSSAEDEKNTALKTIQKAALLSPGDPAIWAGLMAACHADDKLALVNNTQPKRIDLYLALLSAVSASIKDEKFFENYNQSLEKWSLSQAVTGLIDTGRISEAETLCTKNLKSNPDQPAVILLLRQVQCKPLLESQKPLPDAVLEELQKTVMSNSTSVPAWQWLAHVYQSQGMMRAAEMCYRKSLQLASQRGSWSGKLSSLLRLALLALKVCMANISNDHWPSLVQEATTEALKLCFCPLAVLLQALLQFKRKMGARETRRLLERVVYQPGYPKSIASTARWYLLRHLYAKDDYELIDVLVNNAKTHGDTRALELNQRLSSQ

Compound: CC1Cc2ccccc2N1C(=O)C1CCCN(C1)C(=O)CCl (mixture of isomers) [TRIM25 ligand 11 (diastereomer mixture)]
Assay: probe-labelled cysteine peptide fold change vs DMSO (competition) (log2 fold change); higher = less target engagement (more negative = stronger competition)
Details: THP-1, incubation time: 4 h
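Also: competitive chemoproteomic profiling in live THP-1 cells with an iodoacetamide desthiobiotin (IA-DTB) probe, comparing probe-labelled peptide intensities in compound-treated cells against DMSO-treated controls.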

| Target | probe-labelled cysteine peptide fold change (10 µM) | probe-labelled cysteine peptide fold change (50 µM) |
| --- | --- | --- |
| TUBGCP3_Q96CW5_388_TLAALVDHCQGR (UniProt Q96CW5) | 0.0685 | 0.153 |
| TRRAP_Q9Y4A5_1315_HQPANAQIGLMEGNTFCTTLQPR (UniProt Q9Y4A5) | 0.222 | 0.0269 |
| TTI2_Q6NXR4_185_EVLTSLLQVTECGSVAGFLHGENEDEK (UniProt Q6NXR4) | 0.0182 | 0.114 |
| TSR2_Q969E8_114_EMASCITQR (UniProt Q969E8) | -0.0138 | -0.298 |
| TTC17_Q96AE7_506_RADCTESYPR (UniProt Q96AE7) | 0.0404 | 0.0813 |
| TRPV2_Q9Y5S1_218_GQGTCFYFGELPLSLAACTK (UniProt Q9Y5S1) | -0.274 | -0.112 |
| TTI2_Q6NXR4_461_SALLQEATDCLILLDR (UniProt Q6NXR4) | -0.0974 | -0.0477 |
| TSR1_Q2NL82_618_EELIFHCGFR (UniProt Q2NL82) | 0.163 | 0.18 |
| TUT4_Q5TAX3_20_KNVICEESK (UniProt Q5TAX3) | -0.0558 | -0.326 |
| TTF2_Q9UNY4_50_ATDIPVSHCLLHEDFVVELQGLLLPQDKK (UniProt Q9UNY4) | -0.0432 | 0.0515 |
| TUBB6_Q9BUF5_12_MREIVHIQAGQCGNQIGTK (UniProt Q9BUF5) | -0.0592 | -0.175 |
| TTLL12_Q14166_361_PGVLLNQFPCENLLTVK (UniProt Q14166) | -0.15 | -0.1 |
| TTYH3_Q9C0H2_486_CENTPLIGR (UniProt Q9C0H2) | -0.0936 | -0.00547 |
| TRRAP_Q9Y4A5_429_LLLNLVDCIR (UniProt Q9Y4A5) | 0.0648 | 0.0297 |
| TTC28_Q96AY4_816_CYEEQLDLGQK (UniProt Q96AY4) | 0.0873 | 0.289 |
| TRRAP_Q9Y4A5_1879_ACVDPACK (UniProt Q9Y4A5) | 0.175 | 0.172 |
| TSPYL5_Q86VY4_85_LPLDCGLALR (UniProt Q86VY4) | -0.216 | -0.243 |
| TUT4_Q5TAX3_994_LCLFGSSK (UniProt Q5TAX3) | 0.0568 | -0.0335 |
| TTI2_Q6NXR4_36_ILHCLARPEAR (UniProt Q6NXR4) | -0.0996 | -0.12 |
| TRMT2A_Q8IZ69_580_AVAVDLFPQTPHCEMLILFER (UniProt Q8IZ69) | 0.0397 | -0.0186 |
| TRPM2_O94759_1341_GSLSCFGPNHTLYPMVTR (UniProt O94759) | -0.00461 | -0.0356 |
| TTC26_A0AVF1_227_ACNHFR | 0.072 | 0.0596 |

| Target | probe-labelled cysteine peptide fold change (10 µM) | probe-labelled cysteine peptide fold change (50 µM) |
| --- | --- | --- |
| TRMT1_Q9NXH9_620+621_GDQCCYSHSPPTPR (UniProt Q9NXH9) | 0.00833 | -0.313 |
| TRPM2_O94759_693_AIGVFTECYR (UniProt O94759) | 0.0381 | 0.0798 |
| TTLL12_Q14166_361_LSQERPGVLLNQFPCENLLTVK (UniProt Q14166) | 0.0747 | -0.0286 |
| TTC27_Q6P3X3_514_KETPSLYCLLGDVLGDHSCYDK (UniProt Q6P3X3) | -0.0969 | 0.0408 |
| TTC4_O95801_63_ENPDLACLQSIIFDEERSPEEQAK (UniProt O95801) | -0.0205 | -0.00714 |
| TTF2_Q9UNY4_37_ADTCSFVR (UniProt Q9UNY4) | -0.104 | 0.162 |
| TXNDC17_Q9BRA2_46_SWCPDCVQAEPVVR (UniProt Q9BRA2) | -0.332 | -0.479 |
| TTLL12_Q14166_418_WGEDNHWICK (UniProt Q14166) | 0.0917 | 0.0468 |
| TSR3_Q9UJK0_208_YAACGSPEEVLQAEQEFLANAK (UniProt Q9UJK0) | 0.114 | 0.13 |
| TTC7A_Q9ULT0_337_KPHLYEGDNLYCPK (UniProt Q9ULT0) | 0.11 | 0.0734 |
| TRMT1_Q9NXH9_482_VSLSHACK (UniProt Q9NXH9) | 0.0229 | -0.097 |
| TRMT2A_Q8IZ69_260_CEFLVGVGVDGEDNTVGCR (UniProt Q8IZ69) | 0.14 | 0.127 |
| TRMT2A_Q8IZ69_486_VNAQDNELSNVEFHCGR (UniProt Q8IZ69) | 0.101 | -0.11 |
| TTK_P33981_295_TDDSVVPCFMK (UniProt P33981) | -0.0393 | -0.0452 |
| TRRAP_Q9Y4A5_3535_IYPYLVMNDACLTESR (UniProt Q9Y4A5) | -0.171 | 0.0166 |
| TXNDC17_Q9BRA2_64_HISEGCVFIYCQVGEK (UniProt Q9BRA2) | 0.0734 | 0.0424 |
| TRUB1_Q8WWH5_269_ELSSCANVLELTR (UniProt Q8WWH5) | -0.109 | 0.14 |
| TRMT2A_Q8IZ69_392_CIHEDLLGLTFR (UniProt Q8IZ69) | 0.0348 | 0.0272 |
| TSFM_P43897_64_TGYSFVNCK (UniProt P43897) | -0.111 | 0.0251 |
| TST_Q16762_64_HVPGASFFDIEECRDTASPYEMMLPSEAGFAEYVGR (UniProt Q16762) | 0.0284 | -0.153 |
| TTC37_Q6PGP7_600_DFNCWESLGEAYLSR (UniProt Q6PGP7) | 0.0103 | -0.0643 |
| TROVE2_P10155_520_GMLDMCGFDTGALDVIR (UniProt P10155) | -0.0507 | -0.174 |

| Target | probe-labelled cysteine peptide fold change (10 µM) | probe-labelled cysteine peptide fold change (50 µM) |
| --- | --- | --- |
| TXN2_Q99757_93_VVNSETPVVVDFHAQWCGPCK (UniProt Q99757) | -0.376 | -1.25 |
| TTI1_O43156_185+187_CLQVLLLQCDCQDHPR (UniProt O43156) | -0.0713 | -0.00677 |
| TUBGCP2_Q9BSJ2_848_LSIYSTSDCEHGMASVISR (UniProt Q9BSJ2) | 0.0713 | -0.034 |
| TSC2_P49815_395_TIVHDLLTTVEELCDQNEFHGSQER (UniProt P49815) | 0.427 | -0.0548 |
| TRRAP_Q9Y4A5_3758_CFAQPNFK (UniProt Q9Y4A5) | 0.0512 | 0.0922 |
| TTC7A_Q9ULT0_733_EAGFCIQEAAGLFPTSHSVLYMR (UniProt Q9ULT0) | -0.0283 | -0.206 |
| TTC7A_Q9ULT0_121_LSPQYMCEAMLILGK (UniProt Q9ULT0) | 0.28 | 0.274 |
| TUT4_Q5TAX3_833_ELSQCNCIDLSK (UniProt Q5TAX3) | 0.0409 | -0.086 |
| TUFM_P49411_222_ELLTEFGYKGEETPVIVGSALCALEGRDPELGLK (UniProt P49411) | -0.0428 | 0.0764 |
| TSPO_P30536_19_APPWVPAMGFTLAPSLGCFVGSR (UniProt P30536) | 0.0413 | 0.016 |
| TTC37_Q6PGP7_715_ADVSCLWK (UniProt Q6PGP7) | 0.0501 | 0.0713 |
| TSEN54_Q7Z6J9_277_EGVGCSWESGR (UniProt Q7Z6J9) | -0.0393 | -0.141 |
| TTK_P33981_229_NNSCDSR (UniProt P33981) | 0.015 | 0.292 |
| TXNDC11_Q6PKC3_568_KCEVDAPSSVPHIEENR (UniProt Q6PKC3) | 0.11 | -0.0552 |
| TSEN2_Q8NCE0_439_EMESPECMK (UniProt Q8NCE0) | -0.078 | -0.118 |
| TRPM7_Q96QT4_1426_DQETVCSK (UniProt Q96QT4) | -0.118 | -0.219 |
| TTC4_O95801_160_GALCHLELK (UniProt O95801) | -0.118 | 0.0976 |
| TSC2_P49815_1026_NLHLELTETCLDMMAR (UniProt P49815) | 0.155 | 0.166 |
| TUT7_Q5VYS8_775_RGEHVVCGSTR (UniProt Q5VYS8) | -0.194 | -0.237 |
| TTC39C_Q8N584_97_LCESEEAGVIETIK (UniProt Q8N584) | -0.0716 | -0.0786 |
| TTC14_Q96N46_165_DIAHLEITALCPLR (UniProt Q96N46) | 0.0661 | 0.0914 |
| TTC1_Q99614_146+149_ALEMCPSCFQK (UniProt Q99614) | -0.165 | 0.112 |

| Target | probe-labelled cysteine peptide fold change (10 µM) | probe-labelled cysteine peptide fold change (50 µM) |
| --- | --- | --- |
| TTC13_Q8NBP0_505_DVLHQNFESYKPEVQELICVADR (UniProt Q8NBP0) | -0.0634 | -0.0296 |
| TTC37_Q6PGP7_1162_CLLTSAIYALQGR (UniProt Q6PGP7) | -0.13 | -0.0818 |
| TRNAU1AP_Q9NX07_157_ALTECQGAVGLGSKPVR (UniProt Q9NX07) | -0.0678 | -0.0966 |
| TUBA1B_P68363_347_RSIQFVDWCPTGFK (UniProt P68363) | -0.0614 | -0.0951 |
| TTC37_Q6PGP7_305_ESPVCTSGWYHLAEAQVK (UniProt Q6PGP7) | -0.0017 | 0.0178 |
| TTC5_Q8N0Z6_29_DCYFETHSVEDAGR (UniProt Q8N0Z6) | -0.00474 | 0.0453 |
| TTC14_Q96N46_577_DRCPLSSSSLEIPDDFGGR (UniProt Q96N46) | -0.0233 | -0.00469 |
| TTC7A_Q9ULT0_199_LTEREEEVITCFER (UniProt Q9ULT0) | 0.0523 | -0.0121 |
| TRMT2A_Q8IZ69_191_QLECEQVLQK (UniProt Q8IZ69) | -0.0804 | 0.0668 |
| TTC37_Q6PGP7_1280_AALLSPGDPAIWAGLMAACHADDK (UniProt Q6PGP7) | -0.152 | 0.0021 |
| TUT4_Q5TAX3_709_YFACPQTK (UniProt Q5TAX3) | -0.02 | 0.0464 |
| TRPM7_Q96QT4_200_ICTIGIAPWGVIENR (UniProt Q96QT4) | 0.104 | 0.122 |
| TTC17_Q96AE7_725_CPECENSLK (UniProt Q96AE7) | 0.124 | 0.164 |
| TRMT2A_Q8IZ69_538_LLYVSCNPR (UniProt Q8IZ69) | -0.0417 | 0.0586 |
| TUBGCP2_Q9BSJ2_469_ECGHDVTCPVAK (UniProt Q9BSJ2) | -0.046 | -0.0198 |
| TRPM2_O94759_1250_HLLYPNCPVTR (UniProt O94759) | 0.0329 | 0.064 |
| TRMT2A_Q8IZ69_365_ASGVTCLYFVEEGQR (UniProt Q8IZ69) | -0.161 | 0.157 |
| TSPAN2_O60636_164_ESSEQVQPTCPK (UniProt O60636) | 0.0227 | 0.197 |
| TXLNG_Q9NUQ3_127_TDPPDGQQDSECNR (UniProt Q9NUQ3) | -0.0613 | -0.203 |

In a second layout: entries from further up
Target	probe-labelled cysteine peptide fold change (10 µM)	probe-labelled cysteine peptide fold change (50 µM)
TRMT2A_Q8IZ69_191_QLECEQVLQK (UniProt Q8IZ69)	-0.0804	0.0668
TTC37_Q6PGP7_1280_AALLSPGDPAIWAGLMAACHADDK (UniProt Q6PGP7)	-0.152	0.0021
TUT4_Q5TAX3_709_YFACPQTK (UniProt Q5TAX3)	-0.02	0.0464
TRPM7_Q96QT4_200_ICTIGIAPWGVIENR (UniProt Q96QT4)	0.104	0.122
TTC17_Q96AE7_725_CPECENSLK (UniProt Q96AE7)	0.124	0.164
